Measurements taken from US11654119B2, “Bioavailable curcumin nanoparticles and methods of making” (NUtech Ventures, priority 2018, dated 2023).
For at least one compound, name, drawing or mass did not settle the structure.

How the values were obtained:
[1] = Particle size from SEM/TEM images (ImageJ); assay type: physicochemical
[2] = tested on: human intestinal cells; details: cited from earlier work
[3] = biological target: T1, mTORC1 (Homo sapiens, UniProt P42345); details: various human intestinal cells; physiological concentrations; cited from earlier work
T1 construct: host or cells: various human intestinal cells (endogenous)

In the case of `COc1cc(/C=C/C(=O)CC(=O)/C=C/c2ccc(O)c(OC)c2)ccc1O` [crude curcumin, Curcumin (diferuloylmethane)], the crystal size ([1]; SEM images, crude CUR) is reported as over 20 μm, the “particle size of curcumin particles in the bioaccessible fraction” value ([1]; TEM images after simulated digestion) is reported as 67±9 nm and the crystal size ([1]; recrystallized from ethanolic solution using SC-CO2 drying in absence of NSA) is reported as 5-15 μm. The “concentration from which anti-proliferative properties start” value [2] was at least 1 µM and the “concentration at which CUR inhibits mTORC1” value [3] was 2.5 µM.
